Results deposited as PubChem BioAssay AID1224830 (NIAID, 2016).
Purpose: 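Regulators of TLR4 signalling towards TNF-alpha in macrophage-like cells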 (primary screen). Cells: human THP-1 monocytic leukaemia cells, TNF dual-luciferase reporter clone, PMA-differentiated to macrophage-like cells. Reagents: siRNA pool against human genes, 50 nM. Timing: LPS for 4 h, given about 3 days after siRNA transfection. Conditions: bacterial LPS (TLR4 ligand), 10 ng/ml. Measurement: 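TNF firefly reporter luminescence divided by renilla, normalised to the plate median, then turned into a robust z-score for each replicate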. Direction: TNF reporter robust z-score: higher = stronger TNF reporter response to LPS. Rule for the call: 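a well is active when its z-score exceeds 2.8 or falls below -1.5; control wells carry no call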.
This is a random part of about 18,000 deposited reagents. Of all reagents, about 2,900 (16%) are marked active. 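Calls are made per well; low scores hint the gene aids the LPS response, high scores that it dampens it.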 A number with no mark means an inactive call. Repeated entries: four replicate wells of each siRNA pool.

gene	TNF reporter robust z-score
MAN2C1 (GeneID 4123)	-0.47
MAN2C1 (GeneID 4123)	-0.82
MAN2C1 (GeneID 4123)	-0.63
MAN2C1 (GeneID 4123)	-0.7
SAT2 (GeneID 112483)	0.06
SAT2 (GeneID 112483)	-0.48
SAT2 (GeneID 112483)	-1.37
SAT2 (GeneID 112483)	-0.22
SAP30L (GeneID 79685)	-0.25
SAP30L (GeneID 79685)	0.21
SAP30L (GeneID 79685)	-0.13
SAP30L (GeneID 79685)	0.66
MED18 (GeneID 54797)	-0.76
MED18 (GeneID 54797)	0.61
MED18 (GeneID 54797)	0.26
MED18 (GeneID 54797)	-0.01
LY6G6C (GeneID 80740)	-0.88
LY6G6C (GeneID 80740)	-0.96
LY6G6C (GeneID 80740)	-1.17
LY6G6C (GeneID 80740)	-0.83
HIGD1B (GeneID 51751)	-0.71
HIGD1B (GeneID 51751)	-0.63
HIGD1B (GeneID 51751)	-0.77
HIGD1B (GeneID 51751)	-0.36
PDE10A (GeneID 10846)	0.32
PDE10A (GeneID 10846)	0.09
PDE10A (GeneID 10846)	1.07
PDE10A (GeneID 10846)	-0.64
PSG3 (GeneID 5671)	0.56
PSG3 (GeneID 5671)	0.02
PSG3 (GeneID 5671)	-0.51
PSG3 (GeneID 5671)	0.55
HBB (GeneID 3043)	-1
HBB (GeneID 3043)	-0.85
HBB (GeneID 3043)	-1.08
HBB (GeneID 3043)	-0.63
ST6GALNAC6 (GeneID 30815)	-0.56
ST6GALNAC6 (GeneID 30815)	-0.25
ST6GALNAC6 (GeneID 30815)	0.19
ST6GALNAC6 (GeneID 30815)	-0.06
U2AF1 (GeneID 7307)	-0.65
U2AF1 (GeneID 7307)	0.73
U2AF1 (GeneID 7307)	0.15
U2AF1 (GeneID 7307)	-0.24
VASP (GeneID 7408)	3.45 (active)
VASP (GeneID 7408)	2.02
VASP (GeneID 7408)	1.88
VASP (GeneID 7408)	-0.98
PSEN1 (GeneID 5663)	5.65 (active)
PSEN1 (GeneID 5663)	1.55
PSEN1 (GeneID 5663)	0.6
PSEN1 (GeneID 5663)	1.94
GTF2A1L (GeneID 11036)	0.1
GTF2A1L (GeneID 11036)	2.8 (active)
GTF2A1L (GeneID 11036)	0.02
GTF2A1L (GeneID 11036)	0.35

Part of the list above, set out differently:
gene,TNF reporter robust z-score
SAP30L (GeneID 79685),-0.25
SAP30L (GeneID 79685),0.21
SAP30L (GeneID 79685),-0.13
SAP30L (GeneID 79685),0.66
MED18 (GeneID 54797),-0.76
MED18 (GeneID 54797),0.61
MED18 (GeneID 54797),0.26
MED18 (GeneID 54797),-0.01
LY6G6C (GeneID 80740),-0.88
LY6G6C (GeneID 80740),-0.96
LY6G6C (GeneID 80740),-1.17
LY6G6C (GeneID 80740),-0.83
HIGD1B (GeneID 51751),-0.71
HIGD1B (GeneID 51751),-0.63
HIGD1B (GeneID 51751),-0.77
HIGD1B (GeneID 51751),-0.36

The list goes on.
gene	TNF reporter robust z-score
BBX (GeneID 56987)	0.46
BBX (GeneID 56987)	0.18
BBX (GeneID 56987)	0.77
BBX (GeneID 56987)	1.19
BPIFA1 (GeneID 51297)	-1.38
BPIFA1 (GeneID 51297)	-1.61 (active)
BPIFA1 (GeneID 51297)	-1.14
BPIFA1 (GeneID 51297)	0.57
CXCR6 (GeneID 10663)	0.26
CXCR6 (GeneID 10663)	1.44
CXCR6 (GeneID 10663)	-0.09
CXCR6 (GeneID 10663)	-0.36
MEX3D (GeneID 399664)	-2.2 (active)
MEX3D (GeneID 399664)	-1.92 (active)
MEX3D (GeneID 399664)	-1.32
MEX3D (GeneID 399664)	-2.08 (active)
TMC6 (GeneID 11322)	-0.72
TMC6 (GeneID 11322)	2.29
TMC6 (GeneID 11322)	-0.48
TMC6 (GeneID 11322)	2.45
EPX (GeneID 8288)	0.19
EPX (GeneID 8288)	0.53
EPX (GeneID 8288)	0.16
EPX (GeneID 8288)	1.35
KIF3A (GeneID 11127)	0.72
KIF3A (GeneID 11127)	1.74
KIF3A (GeneID 11127)	1.14
KIF3A (GeneID 11127)	0.86
OSTF1 (GeneID 26578)	0.07
OSTF1 (GeneID 26578)	0.36
OSTF1 (GeneID 26578)	0.55
OSTF1 (GeneID 26578)	-0.5
ATL3 (GeneID 25923)	-0.66
ATL3 (GeneID 25923)	-0.79
ATL3 (GeneID 25923)	-0.62
ATL3 (GeneID 25923)	-0.91
CAMK1G (GeneID 57172)	-1.09
CAMK1G (GeneID 57172)	-0.06
CAMK1G (GeneID 57172)	0.13
CAMK1G (GeneID 57172)	0.63
NUP37 (GeneID 79023)	0.47
NUP37 (GeneID 79023)	-0.06
NUP37 (GeneID 79023)	0.73
NUP37 (GeneID 79023)	0.55
FOXD4L4 (GeneID 349334)	0.58
FOXD4L4 (GeneID 349334)	3.97 (active)
FOXD4L4 (GeneID 349334)	0.83
FOXD4L4 (GeneID 349334)	1.95
KLHL20 (GeneID 27252)	-0.32
KLHL20 (GeneID 27252)	1.2
KLHL20 (GeneID 27252)	0
KLHL20 (GeneID 27252)	0.83
OR56A3 (GeneID 390083)	0.44
OR56A3 (GeneID 390083)	0.38
OR56A3 (GeneID 390083)	1.4
OR56A3 (GeneID 390083)	0.78
